For at least one compound, name, drawing or mass did not settle the structure.
Test system: E. coli
Assay: Growth response in tryptic soy broth with additive, A620 turbidity
Assay type: cell-based
Details: 0.15 mg/L

`CCN(CC)c1ccc(C(=C2C=CC(=[N+](CC)CC)C=C2)c2ccccc2)cc1` [brilliant green] was tested, and the “effect on E. coli growth” value was “inhibitory effect”.
